Some results were stated once for a whole list of compounds, not compound by compound.
System: orthotopic 4T1-Luc tumors
Experiment: STL-6014 PDT and metronomic Gemzar in mice bearing 4T1-Luc tumors in the mammary pad (Scheme 1): primary tumor, survival, lung metastases, re-challenge
Type: in vivo, Balb/c mice
Conditions: day 7 post treatment
Protocol: • (i) Bacteriochlorophyll Derivatives—The Bchl derivatives and RGD-conjugates thereof were provided by Steba Biotech (Rehovot, Israel). […] Concentration was verified by spectrophotometric measurement. STL-7012 was provided as dipotassium salt. Working solution was prepared by dissolving STL-7012 K^+ salt in 5% mannitol solution (1 mg/ml). […] WST11 was supplied as a powder and kept in the dark at −20° C. Stock was prepared by dissolving WST11 in DDW containing 5% glucose and 0.67% mannitol, aliquoted and lyophilized. Working solution was reconstituted with DDW and the concentration of solution was confirmed spectrophotometrically. Alternatively, Clinical WST11 (batch: P00611, and 10-130611) was supplied as lyophilized formulation. Material was dissolved in 5% dextrose, aliquoted and stored at −20° C. […] Whole body imaging of luciferase-transfected tumors and metastases were recorded five minutes following 75 mg Kg^−1 intraperitoneal (i.p.) injection of D-luciferin with respective filter sets. • (vi) PDT treatment protocol: 4T1-Luc cells were grafted in the mammary pad of Balb/c mice. […]

For “3^1-oxo-15-methoxycarbonylmethyl-Rhodobacteriochlorin 13^1-(2-sulfoethyl)amide-17^3-(cycloRGDfK) amide potassium salt [STL-6014]”, the “absence of primary tumor, mice” value was 70-80%.
